For at least one compound, name, drawing or mass did not settle the structure.
Test: Oxidative stability of reduced coenzyme Q10 preserved in air at 40° C. (HPLC weight ratio reduced/oxidized)
Settings: crystals preserved as it was, 3 days

COc1c(O)c(C)c(C/C=C(\C)CC/C=C(\C)CC/C=C(\C)CC/C=C(\C)CC/C=C(\C)CC/C=C(\C)CC/C=C(\C)CC/C=C(\C)CC/C=C(\C)CCC=C(C)C)c(O)c1OC [Crystals, reduced coenzyme Q10]
R: Weight ratio of the reduced coenzyme Q10/oxidized coenzyme Q10: 75.0/25.0
